Here are results for two substances from PMC11087952, “Biochemical characterization of Escherichia coli DnaC variants that alter DnaB helicase loading onto DNA” (The Journal of Biological Chemistry, 2024).

Sequences of proteins named here, by UniProt entry; tags and fusion partners are left off. A change or cut given only in a name is not applied to a line headed by its entry.
UniProt P0ACB0: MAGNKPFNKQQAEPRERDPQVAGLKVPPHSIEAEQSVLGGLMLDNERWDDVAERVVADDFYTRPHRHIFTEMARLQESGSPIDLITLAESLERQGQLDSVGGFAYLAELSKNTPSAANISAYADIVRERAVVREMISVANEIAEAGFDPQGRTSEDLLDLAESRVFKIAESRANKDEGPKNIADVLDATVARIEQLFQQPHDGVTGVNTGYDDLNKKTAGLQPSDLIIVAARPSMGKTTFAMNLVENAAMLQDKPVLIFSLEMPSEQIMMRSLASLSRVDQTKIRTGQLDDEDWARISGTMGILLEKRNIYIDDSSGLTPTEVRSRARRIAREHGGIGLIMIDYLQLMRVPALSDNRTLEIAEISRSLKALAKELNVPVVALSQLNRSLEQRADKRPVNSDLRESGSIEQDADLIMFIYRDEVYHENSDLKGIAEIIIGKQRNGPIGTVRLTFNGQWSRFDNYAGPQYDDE
UniProt P0AEF0: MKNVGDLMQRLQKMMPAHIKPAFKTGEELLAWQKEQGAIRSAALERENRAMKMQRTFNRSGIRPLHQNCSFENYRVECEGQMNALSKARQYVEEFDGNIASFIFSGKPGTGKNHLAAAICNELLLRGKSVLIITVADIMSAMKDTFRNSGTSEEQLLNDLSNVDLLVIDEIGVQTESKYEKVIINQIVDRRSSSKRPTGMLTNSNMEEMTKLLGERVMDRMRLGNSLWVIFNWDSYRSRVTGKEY

These are yes or no findings as the source states them, for the method shown. A result given as binding can be weak or reduced; the word gives no strength.

The assay deals with Escherichia coli DnaB replicative helicase (wild-type) (E. coli) (UniProt P0ACB0). As to the kind of experiment: SEC; 10 nmol DnaB and 12 nmol DnaC (1.2:1 DnaC:DnaB) in 20 mM Tris-HCl pH 8.5, 0.2 M NaCl, 5 mM MgCl2, 1 mM BME, 1 mM ATP; analytical size exclusion column (Increase 10/300 GL); peak fractions analysed by PAGE for DnaB and DnaC; both purified. A general note: SEC sorts molecules by how far they enter the pores of the column.

On to “DnaC 824 (N225Y; also printed N255Y) (from UniProt P0AEF0)”, for which the binding result is “binds”.

Turning to DnaC 1331 (A84T) (from UniProt P0AEF0), the binding entry is reported as “binds”.
